Experimental data published in the supplement of paper PMC12282887.
± gives the standard deviation of the averaged measurements. These are raw signals, not scaled to a control.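 The top concentration was set near the MIC for antimicrobials, at 500 µM for most other compounds, and up to 1 mM for known inducer-like compounds. Deletion strains started from a tenfold smaller inoculum, and wells growing below 10% of the overall median were treated as non-growing.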

System: Escherichia coli BW25113
Experiment: growth (OD600 area under curve, 8 h) (OD600 x h); higher = more growth
Experimental: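 E. coli BW25113 reporter strains (wild type, ΔmarA, ΔsoxS, Δrob, each carrying one of 8 lux reporter plasmids) were grown in 40 µl LB in 384-well plates at 37°C, 800 rpm, with each compound at 4 two-fold concentrations, in biological duplicates. Growth is the baseline-corrected OD600 area under the curve over 8 h (0-8 h WT, 1-9 h deletion strains).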

CO[C@@]12[C@H](COC(N)=O)C3=C(C(=O)C(C)=C(N)C3=O)N1C[C@@H]1N[C@@H]12 [Mitomycin C]
growth
Conditions	reporter plasmid: EVC	reporter plasmid: acrABp	reporter plasmid: marRABp	reporter plasmid: micFp	reporter plasmid: ompFp	reporter plasmid: robp	reporter plasmid: soxSp	reporter plasmid: tolCp
0.063 µg/ml, genetic background: wild type	2.84 ± 0.35	2.92 ± 0.12	3.24 ± 0.2	3.05 ± 0.27	2.79 ± 0.1	3.09 ± 0.25	2.88 ± 0.031	3.11 ± 0.14
0.063 µg/ml, genetic background: ΔmarA	3.44 ± 0.42	3.9 ± 0.69	3.76 ± 0.53	3.09 ± 0.16	3.37 ± 0.56	3.67 ± 0.32	2.95 ± 0.39	2.95 ± 0.3
0.063 µg/ml, genetic background: Δrob	2.76 ± 0.3	2.72 ± 0.65	3.06 ± 0.37	3.33 ± 0.54	2.49 ± 0.27	2.48 ± 0.3	2.95 ± 0.63	3.15 ± 0.41
0.063 µg/ml, genetic background: ΔsoxS	2.93 ± 0.12	2.92 ± 1.1	3.07 ± 0.77	2.53 ± 0.073	2.56 ± 0.35	2.98 ± 0.14	2.92 ± 0.077	2.8 ± 0.4
0.13 µg/ml, genetic background: wild type	2.7 ± 0.27	2.89 ± 0.051	3.06 ± 0.057	2.87 ± 0.19	2.81 ± 0.29	2.88 ± 0.31	2.62 ± 0.083	2.93 ± 0.21
0.13 µg/ml, genetic background: ΔmarA	3.25 ± 0.44	3.8 ± 1.6	3.29 ± 1.5	3.06 ± 0.31	2.83 ± 1	2.83 ± 0.41	2.91 ± 0.43	2.95 ± 0.36
0.13 µg/ml, genetic background: Δrob	2.79 ± 0.21	3.02 ± 0.53	2.89 ± 0.032	3.004 ± 0.021	2.4 ± 0.63	2.55 ± 0.1	2.88 ± 0.28	2.89 ± 0.14
0.13 µg/ml, genetic background: ΔsoxS	2.92 ± 0.27	2.97 ± 0.86	2.99 ± 0.7	2.5 ± 0.28	2.32 ± 0.1	2.83 ± 0.26	2.76 ± 0.23	2.71 ± 0.27
0.25 µg/ml, genetic background: wild type	2.73 ± 0.3	2.8 ± 0.21	3.28 ± 0.19	2.97 ± 0.29	2.95 ± 0.16	2.85 ± 0.12	2.78 ± 0.087	3.13 ± 0.19
0.25 µg/ml, genetic background: ΔmarA	3.36 ± 0.37	4.13 ± 0.8	3.97 ± 0.54	3.03 ± 0.47	3.49 ± 0.57	3.89 ± 0.41	3.02 ± 0.59	2.95 ± 0.27
0.25 µg/ml, genetic background: Δrob	2.77 ± 0.54	3.03 ± 0.46	3.22 ± 0.48	3.22 ± 0.56	2.58 ± 0.31	2.69 ± 0.39	2.89 ± 0.4	2.99 ± 0.49
0.25 µg/ml, genetic background: ΔsoxS	2.75 ± 0.09	2.89 ± 0.94	3.16 ± 0.76	2.36 ± 0.17	2.56 ± 0.18	3.06 ± 0.14	2.87 ± 0.48	2.72 ± 0.19
0.5 µg/ml, genetic background: wild type	2.61 ± 0.32	2.42 ± 0.23	2.9405 ± 0.001	2.64 ± 0.34	2.453 ± 0.022	2.66 ± 0.059	2.45 ± 0.045	2.6 ± 0.18
0.5 µg/ml, genetic background: ΔmarA	2.9 ± 0.1	3.39 ± 1.5	3.02 ± 1.1	2.75 ± 0.26	2.48 ± 0.97	3.2 ± 0.5	2.74 ± 0.2	2.67 ± 0.27
0.5 µg/ml, genetic background: Δrob	2.63 ± 0.23	3.11 ± 0.59	3.05 ± 0.069	2.7 ± 0.037	2.23 ± 0.69	2.44 ± 0.19	2.75 ± 0.12	2.91 ± 0.34
0.5 µg/ml, genetic background: ΔsoxS	2.44 ± 0.085	2.83 ± 0.95	3.04 ± 0.92	2.07 ± 0.068	2.41 ± 0.56	3.17 ± 0.39	2.45 ± 0.078	2.56 ± 0.2

O=C1CN(/N=C/c2ccc([N+](=O)[O-])o2)C(=O)N1 [Nitrofurantoin]
growth
Conditions	reporter plasmid: EVC	reporter plasmid: acrABp	reporter plasmid: marRABp	reporter plasmid: micFp	reporter plasmid: ompFp	reporter plasmid: robp	reporter plasmid: soxSp	reporter plasmid: tolCp
0.45 µg/ml, genetic background: wild type	2.98 ± 0.35	2.96 ± 0.26	2.9 ± 0.056	3.17 ± 0.37	2.86 ± 0.25	2.91 ± 0.35	3.05 ± 0.11	2.95 ± 0.12
0.45 µg/ml, genetic background: ΔmarA	3.13 ± 0.35	3.52 ± 0.33	3.44 ± 0.13	3.06 ± 0.59	2.96 ± 0.28	3.22 ± 0.19	2.92 ± 0.32	2.91 ± 0.23
0.45 µg/ml, genetic background: Δrob	2.84 ± 0.49	2.41 ± 0.032	3.08 ± 0.62	3.17 ± 0.33	2.34 ± 0.19	2.47 ± 0.4	2.95 ± 0.39	3.3 ± 0.3
0.45 µg/ml, genetic background: ΔsoxS	3.15 ± 0.24	3.09 ± 0.53	2.88 ± 0.62	2.86 ± 0.2	2.64 ± 0.18	2.7 ± 0.42	3.06 ± 0.081	3.1 ± 0.27
0.89 µg/ml, genetic background: wild type	2.87 ± 0.37	2.84 ± 0.27	3.03 ± 0.25	3 ± 0.34	2.82 ± 0.33	3.01 ± 0.25	2.81 ± 0.071	2.86 ± 0.06
0.89 µg/ml, genetic background: ΔmarA	3.01 ± 0.36	3.8 ± 0.059	3.24 ± 0.049	3.01 ± 0.74	2.96 ± 0.9	3.25 ± 0.29	2.71 ± 0.44	2.78 ± 0.19
0.89 µg/ml, genetic background: Δrob	2.64 ± 0.5	2.3 ± 0.35	3.06 ± 0.3	3.08 ± 0.4	2.47 ± 0.32	2.49 ± 0.063	2.49 ± 0.39	2.98 ± 0.068
0.89 µg/ml, genetic background: ΔsoxS	2.71 ± 0.075	2.86 ± 0.32	2.87 ± 0.62	2.56 ± 0.13	2.58 ± 0.044	2.65 ± 0.37	2.76 ± 0.27	2.8 ± 0.27
1.8 µg/ml, genetic background: wild type	2.62 ± 0.2	2.47 ± 0.35	2.56 ± 0.061	2.77 ± 0.3	2.58 ± 0.22	2.71 ± 0.086	2.67 ± 0.12	2.48 ± 0.045
1.8 µg/ml, genetic background: ΔmarA	2.82 ± 0.54	3.83 ± 0.4	2.994 ± 0.025	2.71 ± 0.22	2.799 ± 0.022	3.21 ± 0.34	2.54 ± 0.51	2.59 ± 0.43
1.8 µg/ml, genetic background: Δrob	2.31 ± 0.38	2.14 ± 0.45	2.59 ± 0.28	2.65 ± 0.49	2 ± 0.21	2.07 ± 0.25	2.25 ± 0.53	2.66 ± 0.11
1.8 µg/ml, genetic background: ΔsoxS	2.62 ± 0.091	2.74 ± 0.33	2.58 ± 0.41	2.13 ± 0.11	2.39 ± 0.056	2.83 ± 0.54	2.57 ± 0.26	2.5 ± 0.096
3.6 µg/ml, genetic background: wild type	1.82 ± 0.07	0.425 ± 0.012	1.19 ± 0.21	1.1 ± 0.36	0.463 ± 0.36	0.94 ± 0.01	1.48 ± 0.16	1.64 ± 0.057
3.6 µg/ml, genetic background: ΔmarA	1.75 ± 0.37	1.29 ± 0.62	1.33 ± 0.41	1.69 ± 0.65	0.964 ± 0.41	2.1 ± 0.66	1.01 ± 0.025	1.75 ± 0.28
3.6 µg/ml, genetic background: Δrob	1.52 ± 0.12	0.125 ± 0.11	0.719 ± 0.26	1.52 ± 0.1	0.305 ± 0.31	0.0968 ± 0.051	0.926 ± 0.32	1.92 ± 0.082
3.6 µg/ml, genetic background: ΔsoxS	1.63 ± 0.2	0.505 ± 0.32	0.35 ± 0.21	0.623 ± 0.57	0.184 ± 0.24	0.552 ± 0.0053	1.32 ± 0.014	1.65 ± 0.24

NC[C@H](O)c1ccc(O)c(O)c1 [Noradrenalin]
growth
Conditions	reporter plasmid: EVC	reporter plasmid: acrABp	reporter plasmid: marRABp	reporter plasmid: micFp	reporter plasmid: ompFp	reporter plasmid: robp	reporter plasmid: soxSp	reporter plasmid: tolCp
20 µg/ml, genetic background: wild type	3.04 ± 0.31	2.77 ± 0.23	2.93 ± 0.0031	3.09 ± 0.27	2.83 ± 0.32	3.023 ± 0.019	3.18 ± 0.094	3.23 ± 0.12
20 µg/ml, genetic background: ΔmarA	3 ± 0.32	3.69 ± 0.14	3.16 ± 0.09	3.25 ± 0.76	3.08 ± 1	3.23 ± 0.27	2.96 ± 0.53	2.8 ± 0.35
20 µg/ml, genetic background: Δrob	3.11 ± 0.46	2.57 ± 0.17	3.15 ± 0.45	3.15 ± 0.4	2.36 ± 0.51	2.44 ± 0.17	2.91 ± 0.27	3.23 ± 0.14
20 µg/ml, genetic background: ΔsoxS	3.22 ± 0.15	3.16 ± 0.14	2.9 ± 0.64	2.94 ± 0.37	2.908 ± 0.0031	2.78 ± 0.44	3.14 ± 0.12	3.28 ± 0.35
39.9 µg/ml, genetic background: wild type	2.89 ± 0.33	2.79 ± 0.45	2.93 ± 0.2	3.18 ± 0.2	2.71 ± 0.25	3 ± 0.18	3.06 ± 0.18	3.248 ± 0.0088
39.9 µg/ml, genetic background: ΔmarA	3 ± 0.38	3.6532 ± 0.0025	3.119 ± 0.013	3.09 ± 0.7	3.17 ± 0.78	3.3 ± 0.21	2.99 ± 0.48	2.85 ± 0.31
39.9 µg/ml, genetic background: Δrob	2.86 ± 0.69	2.39 ± 0.19	3.15 ± 0.69	3.06 ± 0.41	2.35 ± 0.39	2.47 ± 0.41	2.84 ± 0.27	3.18 ± 0.24
39.9 µg/ml, genetic background: ΔsoxS	3.03 ± 0.12	2.94 ± 0.0097	2.79 ± 0.56	2.8 ± 0.2	2.82 ± 0.05	2.77 ± 0.36	2.92 ± 0.064	3.1 ± 0.34
79.8 µg/ml, genetic background: wild type	3.01 ± 0.24	2.72 ± 0.24	3.08 ± 0.048	3.184 ± 0.019	2.739 ± 0.025	2.94 ± 0.38	3.16 ± 0.033	3.022 ± 0.0042
79.8 µg/ml, genetic background: ΔmarA	3.02 ± 0.52	3.87 ± 0.51	3.24 ± 0.22	3.15 ± 0.8	3.26 ± 0.67	3.52 ± 0.41	2.86 ± 0.35	2.93 ± 0.23
79.8 µg/ml, genetic background: Δrob	3.01 ± 0.67	2.5 ± 0.37	3.16 ± 0.16	2.92 ± 0.48	2.49 ± 0.38	2.56 ± 0.062	2.77 ± 0.28	3.14 ± 0.28
79.8 µg/ml, genetic background: ΔsoxS	3.21 ± 0.11	3.37 ± 0.076	2.85 ± 0.33	2.76 ± 0.12	3.09 ± 0.096	3.19 ± 0.41	3.19 ± 0.11	3.11 ± 0.31
159.6 µg/ml, genetic background: wild type	2.85 ± 0.28	2.59 ± 0.43	2.88 ± 0.12	2.84 ± 0.23	2.53 ± 0.29	2.86 ± 0.035	2.81 ± 0.12	2.89 ± 0.24
159.6 µg/ml, genetic background: ΔmarA	2.85 ± 0.6	3.37 ± 0.73	3.22 ± 0.22	2.96 ± 0.79	2.87 ± 0.69	3.41 ± 0.46	2.6 ± 0.28	2.62 ± 0.31
159.6 µg/ml, genetic background: Δrob	2.73 ± 0.72	2.1 ± 0.53	3.01 ± 0.59	2.94 ± 0.36	2.37 ± 0.18	2.34 ± 0.18	2.67 ± 0.069	2.94 ± 0.46
159.6 µg/ml, genetic background: ΔsoxS	2.9588 ± 0.0026	2.62 ± 0.066	2.75 ± 0.47	2.27 ± 0.34	2.49 ± 0.094	2.6 ± 0.37	2.74 ± 0.22	2.91 ± 0.38
